{"source": "PubChem BioAssay AID1259424 (University of Nebraska Medical Center, 2018)", "screen": "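Find knockdowns that reproduce the expression shifts seen after KSR1 loss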 (primary screen)", "cell system": "human HCT116 colon cancer cells", "reagents": "siRNA pool against human genes, 50 nM", "measurement": "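Log2 levels of six mRNAs (branched-DNA multiplex), adjusted by two reference genes and the non-targeting median, then scored against the average KSR1 knockdown pattern as Pearson r and euclidean distance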", "direction": "mean correlation with KSR1 profile: higher = expression change more like KSR1 knockdown; mean distance from KSR1 profile: higher = expression change less like KSR1 knockdown", "note": "Here is one part, drawn at random, of about 14,000 deposited reagents. 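Higher correlation or smaller distance means closer resemblance to KSR1 loss; control wells, including KSR1 knockdowns, recur on many plates.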 Not all columns of the deposit are shown. Not given: the time to read-out."}
{"target gene":"LRRC32","PubChem SID":"SID363996413","mean correlation with KSR1 profile":-0.439,"mean distance from KSR1 profile":3.16}
{"target gene":"TAS2R4","PubChem SID":"SID364000280","mean correlation with KSR1 profile":0.782,"mean distance from KSR1 profile":0.953}
{"target gene":"SIM1","PubChem SID":"SID363996005","mean correlation with KSR1 profile":0.551,"mean distance from KSR1 profile":2.13}
{"target gene":"HERC1","PubChem SID":"SID363994978","mean correlation with KSR1 profile":0.387,"mean distance from KSR1 profile":1.78}
{"target gene":"MIPEP","PubChem SID":"SID363996800","mean correlation with KSR1 profile":0.52,"mean distance from KSR1 profile":0.948}
{"target gene":"MFAP3","PubChem SID":"SID363996795","mean correlation with KSR1 profile":0.277,"mean distance from KSR1 profile":1.5}
{"target gene":"PPP2R5E","PubChem SID":"SID363997070","mean correlation with KSR1 profile":-0.471,"mean distance from KSR1 profile":3.16}
{"target gene":"UGT2B15","PubChem SID":"SID363992373","mean correlation with KSR1 profile":-0.0405,"mean distance from KSR1 profile":1.73}
{"target gene":"ENO2","PubChem SID":"SID363993187","mean correlation with KSR1 profile":-0.918,"mean distance from KSR1 profile":1.84}
{"target gene":"MAP2K5","PubChem SID":"SID363993915","mean correlation with KSR1 profile":0.263,"mean distance from KSR1 profile":1.67}
{"target gene":"SH2D3A","PubChem SID":"SID363996392","mean correlation with KSR1 profile":-0.0901,"mean distance from KSR1 profile":2.58}
{"target gene":"MEF2D","PubChem SID":"SID363996789","mean correlation with KSR1 profile":-0.42,"mean distance from KSR1 profile":2.74}
{"target gene":"QKI","PubChem SID":"SID363997545","mean correlation with KSR1 profile":-0.0161,"mean distance from KSR1 profile":1.99}
{"target gene":"MAGEF1","PubChem SID":"SID364002375","mean correlation with KSR1 profile":-0.537,"mean distance from KSR1 profile":3.53}
{"target gene":"IL13","PubChem SID":"SID363993389","mean correlation with KSR1 profile":0.0746,"mean distance from KSR1 profile":1.11}
{"target gene":"DOT1L","PubChem SID":"SID364003999","mean correlation with KSR1 profile":0.382,"mean distance from KSR1 profile":1.67}
{"target gene":"PIGR","PubChem SID":"SID363993812","mean correlation with KSR1 profile":0.0739,"mean distance from KSR1 profile":1.3}
{"target gene":"GUCA1A","PubChem SID":"SID363991740","mean correlation with KSR1 profile":0.534,"mean distance from KSR1 profile":1.2}
{"target gene":"ZNF593","PubChem SID":"SID363999686","mean correlation with KSR1 profile":-0.336,"mean distance from KSR1 profile":1.57}
{"target gene":"ELP3","PubChem SID":"SID364000773","mean correlation with KSR1 profile":0.19,"mean distance from KSR1 profile":2.88}
{"target gene":"MET","PubChem SID":"SID363991578","mean correlation with KSR1 profile":-0.349,"mean distance from KSR1 profile":3.18}
{"target gene":"SST","PubChem SID":"SID363992345","mean correlation with KSR1 profile":0.293,"mean distance from KSR1 profile":4.08}
{"target gene":"DCXR","PubChem SID":"SID364000008","mean correlation with KSR1 profile":0.0448,"mean distance from KSR1 profile":4.5}
{"target gene":"PCSK7","PubChem SID":"SID363995675","mean correlation with KSR1 profile":0.218,"mean distance from KSR1 profile":2.1}
{"target gene":"MDK","PubChem SID":"SID363993571","mean correlation with KSR1 profile":0.254,"mean distance from KSR1 profile":1.75}
{"target gene":"MRGPRF","PubChem SID":"SID364004636","mean correlation with KSR1 profile":-0.0397,"mean distance from KSR1 profile":3.18}
{"target gene":"GPR160","PubChem SID":"SID363998797","mean correlation with KSR1 profile":0.84,"mean distance from KSR1 profile":1.72}
{"target gene":"CPSF7","PubChem SID":"SID364003078","mean correlation with KSR1 profile":0.689,"mean distance from KSR1 profile":1.14}

Looked up above.
Value for MIPEP [SID363996800] in “mean correlation with KSR1 profile”: 0.52
QKI [SID363997545], mean distance from KSR1 profile = 1.99
